Literature values in patent US20100003364A1, “REDUCED-HANGOVER ALCOHOLIC BEVERAGE COMPRISING TURMERIC” (priority 2006, published 2010).
For at least one compound, name, drawing or mass did not settle the structure.

Conditions: biological activities listed for compounds from Curcuma longa L.

Compound: COc1cc(C=CC(=O)CC(=O)C=Cc2ccc(O)cc2)ccc1O [Dimethoxy curcumin]
- Activity: antioxidant
